According to publication PMC4552876:
These are yes or no findings as the source states them, for the method shown. In cells and extracts the contact can be indirect. Some results given as binding are weak or reduced against the parent protein; the word gives no strength.

The chains behind the UniProt entries cited, without tags or fusion partners. Residues count along the entry.
UniProt P56818, residues 46-501: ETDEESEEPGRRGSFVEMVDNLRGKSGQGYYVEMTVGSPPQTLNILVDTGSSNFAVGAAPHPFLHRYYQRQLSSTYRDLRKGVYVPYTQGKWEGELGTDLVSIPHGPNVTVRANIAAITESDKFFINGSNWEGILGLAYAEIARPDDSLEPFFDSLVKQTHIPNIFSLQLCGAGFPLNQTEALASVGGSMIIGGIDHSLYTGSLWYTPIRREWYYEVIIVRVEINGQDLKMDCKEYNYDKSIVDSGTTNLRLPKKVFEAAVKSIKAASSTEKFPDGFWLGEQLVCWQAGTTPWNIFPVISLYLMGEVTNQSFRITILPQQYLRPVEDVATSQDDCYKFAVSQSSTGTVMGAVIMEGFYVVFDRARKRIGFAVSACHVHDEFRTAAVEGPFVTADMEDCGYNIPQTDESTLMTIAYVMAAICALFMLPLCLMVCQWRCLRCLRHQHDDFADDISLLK
UniProt P56817, residues 46-501: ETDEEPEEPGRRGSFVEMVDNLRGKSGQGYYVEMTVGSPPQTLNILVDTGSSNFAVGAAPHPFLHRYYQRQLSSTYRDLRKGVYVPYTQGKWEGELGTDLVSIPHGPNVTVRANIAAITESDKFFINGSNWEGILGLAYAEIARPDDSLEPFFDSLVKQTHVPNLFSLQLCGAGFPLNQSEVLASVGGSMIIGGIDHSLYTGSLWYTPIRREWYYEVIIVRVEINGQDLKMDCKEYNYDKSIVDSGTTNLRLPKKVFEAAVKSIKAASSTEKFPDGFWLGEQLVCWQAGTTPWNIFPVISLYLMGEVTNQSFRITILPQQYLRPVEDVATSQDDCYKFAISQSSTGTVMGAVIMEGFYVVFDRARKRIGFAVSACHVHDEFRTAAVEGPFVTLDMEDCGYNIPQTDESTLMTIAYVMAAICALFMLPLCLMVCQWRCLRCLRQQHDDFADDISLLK

Assays:
[1] = target: Cdk5, endogenous in p25 transgenic mouse hippocampus (mouse (endogenous in p25 TG mouse hippocampus)) (UniProt P49615); assay: co-IP; p25 TG mouse hippocampal lysates; immunoprecipitated with anti-Cdk5 antibody or control IgG, then immunoblot
[2] = target: Cyclin-dependent kinase 5 (Cdk5), human, transfected in HEK293T cells (human) (UniProt Q00535); assay: co-IP; lysates of HEK293T cells transfected with plasmids encoding p25 and Cdk5; immunoprecipitated with anti-Cdk5 antibody or control IgG, then immunoblot

| binding [1] | binding [2] | Substance |
| --- | --- | --- |
| binds | – | BACE1, endogenous in p25 transgenic mouse hippocampus (from UniProt P56818 46-501) |
| – | binds | beta-site amyloid precursor protein (APP) cleaving enzyme 1 (BACE1), endogenous in HEK293T cells (from UniProt P56817 46-501) |
